Test results as given in PMC10448198.
These are yes or no findings as the source states them, for the method shown. In cells and extracts the contact can be indirect. Some binding calls cover weakened binding; strength is not graded here.

Chains of the proteins cited; added tags and fusions are not shown.
UniProt P63017: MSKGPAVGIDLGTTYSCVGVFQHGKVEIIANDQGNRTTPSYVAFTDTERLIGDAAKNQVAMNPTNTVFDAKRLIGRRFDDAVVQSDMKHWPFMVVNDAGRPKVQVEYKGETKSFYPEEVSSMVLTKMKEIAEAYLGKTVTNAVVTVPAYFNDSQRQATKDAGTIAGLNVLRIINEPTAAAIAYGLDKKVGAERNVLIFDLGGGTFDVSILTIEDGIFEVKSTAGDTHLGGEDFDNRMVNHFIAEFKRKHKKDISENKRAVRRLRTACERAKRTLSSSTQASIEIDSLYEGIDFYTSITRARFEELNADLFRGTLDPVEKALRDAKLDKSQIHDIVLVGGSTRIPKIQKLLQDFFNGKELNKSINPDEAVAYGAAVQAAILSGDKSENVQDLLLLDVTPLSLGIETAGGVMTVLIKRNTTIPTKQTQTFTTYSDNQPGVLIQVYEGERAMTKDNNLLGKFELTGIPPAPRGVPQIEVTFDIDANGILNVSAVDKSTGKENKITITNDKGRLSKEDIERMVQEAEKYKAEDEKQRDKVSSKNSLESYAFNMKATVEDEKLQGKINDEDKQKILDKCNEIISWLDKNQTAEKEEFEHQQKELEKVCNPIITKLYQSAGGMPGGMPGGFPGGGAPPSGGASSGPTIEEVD
UniProt Q60974: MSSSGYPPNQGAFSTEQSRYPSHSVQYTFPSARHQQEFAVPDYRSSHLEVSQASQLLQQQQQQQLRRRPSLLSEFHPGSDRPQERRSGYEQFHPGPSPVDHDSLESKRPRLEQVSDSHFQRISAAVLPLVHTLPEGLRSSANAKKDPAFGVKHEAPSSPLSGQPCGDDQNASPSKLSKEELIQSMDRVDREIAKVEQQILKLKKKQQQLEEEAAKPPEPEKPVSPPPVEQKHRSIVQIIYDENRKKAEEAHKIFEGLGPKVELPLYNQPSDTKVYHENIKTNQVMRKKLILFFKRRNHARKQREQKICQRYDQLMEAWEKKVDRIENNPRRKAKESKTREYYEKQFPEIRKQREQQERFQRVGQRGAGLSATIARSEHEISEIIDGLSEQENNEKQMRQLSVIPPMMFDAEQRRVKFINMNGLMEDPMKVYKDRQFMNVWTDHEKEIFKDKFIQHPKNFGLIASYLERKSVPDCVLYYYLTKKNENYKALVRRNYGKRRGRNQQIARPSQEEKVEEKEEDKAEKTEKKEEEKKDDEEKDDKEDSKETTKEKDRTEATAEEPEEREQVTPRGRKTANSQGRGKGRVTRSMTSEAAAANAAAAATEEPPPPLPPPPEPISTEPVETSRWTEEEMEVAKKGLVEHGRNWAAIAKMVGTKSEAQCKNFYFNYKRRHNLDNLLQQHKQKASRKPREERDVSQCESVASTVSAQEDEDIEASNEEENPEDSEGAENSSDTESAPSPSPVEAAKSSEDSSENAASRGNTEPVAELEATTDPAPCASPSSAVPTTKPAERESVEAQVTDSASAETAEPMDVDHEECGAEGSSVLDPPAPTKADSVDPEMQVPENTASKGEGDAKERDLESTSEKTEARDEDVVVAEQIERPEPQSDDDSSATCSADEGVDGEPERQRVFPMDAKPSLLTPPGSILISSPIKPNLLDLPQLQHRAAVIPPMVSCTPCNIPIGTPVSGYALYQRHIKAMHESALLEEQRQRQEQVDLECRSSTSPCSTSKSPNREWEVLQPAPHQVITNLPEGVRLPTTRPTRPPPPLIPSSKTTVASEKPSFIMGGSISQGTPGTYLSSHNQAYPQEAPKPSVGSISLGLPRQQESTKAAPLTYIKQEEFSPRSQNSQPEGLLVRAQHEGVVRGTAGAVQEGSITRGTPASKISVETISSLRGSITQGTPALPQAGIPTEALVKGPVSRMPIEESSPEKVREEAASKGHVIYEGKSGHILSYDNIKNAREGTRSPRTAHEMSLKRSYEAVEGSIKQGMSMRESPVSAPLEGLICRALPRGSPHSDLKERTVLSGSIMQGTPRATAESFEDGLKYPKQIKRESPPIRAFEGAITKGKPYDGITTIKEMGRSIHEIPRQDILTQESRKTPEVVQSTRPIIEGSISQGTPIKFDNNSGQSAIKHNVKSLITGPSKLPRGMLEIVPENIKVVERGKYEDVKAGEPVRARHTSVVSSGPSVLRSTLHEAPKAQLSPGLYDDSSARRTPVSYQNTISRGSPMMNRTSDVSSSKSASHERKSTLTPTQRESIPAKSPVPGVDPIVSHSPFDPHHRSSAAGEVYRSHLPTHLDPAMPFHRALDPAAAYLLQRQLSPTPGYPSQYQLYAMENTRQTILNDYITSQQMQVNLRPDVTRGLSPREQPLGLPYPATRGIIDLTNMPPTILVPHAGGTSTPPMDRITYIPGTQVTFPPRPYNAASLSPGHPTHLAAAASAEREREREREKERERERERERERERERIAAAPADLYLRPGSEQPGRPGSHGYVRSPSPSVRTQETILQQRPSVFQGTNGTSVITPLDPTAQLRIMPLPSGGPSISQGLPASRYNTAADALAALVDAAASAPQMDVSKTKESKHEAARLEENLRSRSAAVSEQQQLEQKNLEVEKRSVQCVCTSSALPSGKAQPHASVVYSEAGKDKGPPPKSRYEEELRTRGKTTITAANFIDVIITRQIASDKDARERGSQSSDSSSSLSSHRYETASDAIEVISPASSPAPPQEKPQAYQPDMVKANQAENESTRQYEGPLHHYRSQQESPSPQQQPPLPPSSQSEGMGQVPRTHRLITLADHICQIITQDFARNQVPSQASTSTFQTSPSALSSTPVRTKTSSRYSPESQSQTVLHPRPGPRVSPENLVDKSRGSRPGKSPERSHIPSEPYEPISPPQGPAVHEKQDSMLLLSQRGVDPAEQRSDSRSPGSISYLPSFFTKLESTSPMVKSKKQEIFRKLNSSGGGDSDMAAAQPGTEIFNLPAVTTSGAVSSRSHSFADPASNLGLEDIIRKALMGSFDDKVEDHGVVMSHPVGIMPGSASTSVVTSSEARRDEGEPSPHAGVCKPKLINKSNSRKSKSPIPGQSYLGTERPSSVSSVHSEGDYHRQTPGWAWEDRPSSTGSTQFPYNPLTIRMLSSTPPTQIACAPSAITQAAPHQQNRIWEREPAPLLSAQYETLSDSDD

Target: Heat shock cognate 71 kDa protein (Hsc70) (mouse (endogenous in primary hepatocytes)) (UniProt P63017)
Assay: co-IP; endogenous proteins of mouse primary hepatocytes; precipitated overnight with Hsc70 antibody (IgG as control) and protein G agarose beads; washed three times with modified RIPA buffer; western blot

Q: How did the binding turn out when “nuclear receptor corepressor 1 (NCoR1) (from UniProt Q60974 1-2453)” was run?
A: binds
